Measured data: PubChem BioAssay AID720505 (Drosophila RNAi Screening Center, 2013)
The deposit covers about 20,000 reagents; below is an unselected part of those that have a named target and a result. In the full data, about 2,100 (10%) are marked active. 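Raw plate signals without normalisation; calls rest on control-based scores that were not deposited; replicate 2 separates called from uncalled poorly.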 No sequences are given here. The record does not give: the amount of reagent, the time to read-out.

- Assay: 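Genes needed for store-operated calcium entry in fly cells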 (primary screen)
- Cells: Drosophila S2R+ cells
- Knock-down reagent: long dsRNA against Drosophila genes
- Conditions: thapsigargin (2 µM) in calcium-free buffer to empty internal stores, then 2 mM calcium added back
- Detection: 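Stores emptied by 2 µM thapsigargin without calcium, then 2 mM calcium re-added; fluo-4 fluorescence followed by FLIPR in 384-well plates, per-well averaged endpoint, raw; two screen passes, some wells retested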
- Direction: calcium signal and retest calcium signal: higher = more calcium entry after store depletion
- Hit rule: 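About 1500 genes called as lowering calcium entry, by varying amounts, judged against per-plate control wells with STIM1 as positive and Rho1 as negative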
- Meaning of the calls: active = called as lowering calcium entry; inactive = not called

| predicted target | DRSC id | calcium signal, replicate 1 | calcium signal, replicate 2 | retest calcium signal, replicate 1 | retest calcium signal, replicate 2 | Outcome |
| --- | --- | --- | --- | --- | --- | --- |
| CG8407 | DRSC07167 | 93.6 | 89.5 | – | – | inactive |
| plu | DRSC07665 | 140 | 116 | – | – | inactive |
| lectin-24A | DRSC00604 | 140 | 78.8 | – | – | inactive |
| CG13026 | DRSC09906 | 106 | 157 | – | – | inactive |
| CG17141 | DRSC15178 | 154 | 153 | – | – | inactive |
| tow | DRSC10192 | 80.9 | 52.2 | – | – | inactive |
| tow | DRSC23125 | 94.2 | 166 | – | – | inactive |
| Sou | DRSC04356 | 196 | 98.5 | – | – | inactive |
| CG15395 | DRSC00409 | 171 | 178 | – | – | inactive |
| CG32085 | DRSC10138 | 99.1 | 101 | – | – | inactive |
| CG32085 | DRSC10139 | 99.1 | 96.7 | – | – | inactive |
| CG32085 | DRSC10576 | 86.8 | 97.1 | – | – | inactive |
| l(3)80Fj | DRSC20986 | 114 | 10872 | – | – | inactive |
| l(3)80Fj | DRSC20989 | 114 | 113 | – | – | inactive |
| Dolk | DRSC07143 | 125 | 114 | – | – | inactive |
| side | DRSC14523 | 154 | 168 | 6127 | 162 | inactive |
| side | DRSC14716 | 171 | 137 | – | – | inactive |
| side | DRSC14717 | 172 | 167 | – | – | inactive |
| side | DRSC14718 | 170 | 123 | – | – | inactive |
| side | DRSC14721 | 155 | 122 | – | – | inactive |
| GluRS-m | DRSC10431 | 65.7 | 152 | – | – | inactive |
| cv-c | DRSC14969 | 80.7 | 116 | – | – | inactive |
| cv-c | DRSC14970 | 93.7 | 114 | – | – | inactive |
| cv-c | DRSC14971 | 102 | 95.9 | – | – | inactive |
| cv-c | DRSC14972 | 99.7 | 113 | – | – | inactive |
| cv-c | DRSC14973 | 127 | 118 | – | – | inactive |
| cv-c | DRSC16428 | 104 | 134 | – | – | inactive |
| cv-c | DRSC23199 | 125 | 131 | – | – | inactive |
| CG32944 | DRSC12138 | 105 | 109 | – | – | inactive |
| CG32944 | DRSC12341 | 104 | 149 | – | – | inactive |
| Pcd | DRSC16785 | 203 | 197 | – | – | inactive |
| CG8132 | DRSC16383 | 107 | 88.4 | – | – | inactive |
| bonsai | DRSC04453 | 60.7 | 136 | – | – | active |
| NLaz | DRSC21521 | 157 | 113 | – | – | inactive |
| CG13193 | DRSC06318 | 92.8 | 185 | – | – | inactive |
| CG5906 | DRSC10557 | 46.8 | 85.5 | – | – | active |
| CG15865 | DRSC19733 | 108 | 142 | – | – | inactive |
| Socs44A | DRSC06828 | 152 | 104 | – | – | inactive |
| MED31 | DRSC12142 | 121 | 76.8 | – | – | inactive |
| Klc | DRSC11203 | 96.5 | 110 | – | – | inactive |
| E(spl)mbeta-HLH | DRSC16697 | 91.8 | 105 | – | – | inactive |
| pes | DRSC03033 | 91.5 | 163 | – | – | inactive |
| MED20 | DRSC03463 | 130 | 115 | – | – | inactive |
| CG10589 | DRSC11629 | 100 | 157 | – | – | inactive |
| CG17097 | DRSC02569 | 215 | 142 | – | – | inactive |
| Tsp68C | DRSC09295 | – | – | – | – | active |
| mlt (retired record) | DRSC06120 | 157 | 183 | – | – | inactive |
| RanBP3 | DRSC14217 | 192 | 242 | – | – | inactive |
| RanBP3 | DRSC23153 | 101 | 103 | – | – | inactive |
| Nsf2 | DRSC22104 | 75.1 | 187 | – | – | inactive |
| ND-B16.6 | DRSC18306 | 147 | 85.5 | – | – | inactive |
| ND-B16.6 | DRSC22600 | 99.2 | 178 | – | – | inactive |
| ATP6AP2 | DRSC16420 | 95.6 | 139 | – | – | inactive |
| Ugt37A3 | DRSC15937 | 183 | 90.2 | – | – | inactive |
| CG10481 | DRSC02063 | 118 | 106 | – | – | inactive |
| Orc6 | DRSC07497 | 122 | 221 | – | – | inactive |

Copied from the entries so far, 5 entries:
| predicted target | DRSC id | calcium signal, replicate 1 | calcium signal, replicate 2 | retest calcium signal, replicate 1 | retest calcium signal, replicate 2 | Outcome |
| --- | --- | --- | --- | --- | --- | --- |
| bonsai | DRSC04453 | 60.7 | 136 | – | – | active |
| NLaz | DRSC21521 | 157 | 113 | – | – | inactive |
| CG13193 | DRSC06318 | 92.8 | 185 | – | – | inactive |
| CG5906 | DRSC10557 | 46.8 | 85.5 | – | – | active |
| CG15865 | DRSC19733 | 108 | 142 | – | – | inactive |
